The supplement of paper PMC10382679
Single values of this set are uncertain.

B1: Rpb7; numbered along this chain (parent)
chain: MFFIKDLSLNITLHPSFFGPRMKQYLKTKLLEEVEGSCTGKFGYILCVLDYDNIDIQRGRILPTDGSAEFNVKYRAVVFKPFKGEVVDGTVVSCSQHGFEVQVGPMKVFVTKHLMPQDLTFNAGSNPPSYQSSEDVITIKSRIRVKIEGCISQVSSIHAIGSIKEDYLGAI

Key:
[1] = variants of: B1; assay: log2 fold change of mutant abundance, UV-irradiated vs unirradiated; higher = more UV resistant (enriched after UV); settings: with Saccharomyces cerevisiae rad7Δ rad26Δ; UV dose (J/m2): 10; genetic background: rad7Δ rad26Δ rpb7Δ + plasmid RPB7 library; outgrowth: 10 cell divisions
[2] = variants of: B1; assay: NOISeq theta enrichment statistic, UV-irradiated vs unirradiated (dimensionless); higher = more UV resistant (enriched after UV); settings: with Saccharomyces cerevisiae rad7Δ rad26Δ; UV dose (J/m2): 10; genetic background: rad7Δ rad26Δ rpb7Δ + plasmid RPB7 library; outgrowth: 10 cell divisions

Row | Variant | log2 fold change of mutant abundance [1] | NOISeq theta enrichment statistic [2]
1 | MFFIKDLSLNITLHPSFFGPRMKQYLKTKLLEEVEGSCTGKFGYILCVLDYDNIDIQRGRILPTDGSAEFNVKYRAVVFKPFKGEVVDGTVVSCSQHGFEVQVGPMKVFVTKHLMPQDLTFNAGSNSPSYQSSEDVITIKSRIRVKIEGCISQVSSIHAIGSIKEDYLGAI [P127S] | -0.439 | -0.893
2 | MFFIKDLSLNITLHPSFFGPRMKQYLKTKLLEEVEGSCTGKFGYILCVLDYDNIDIQRGRILPTDGSAEFNVKYRAVVFKPFKGEVVDGTVVSCSQHGFEVQVGPMKVFVTKHLMPQDLTFNAGSNTPSYQSSEDVITIKSRIRVKIEGCISQVSSIHAIGSIKEDYLGAI [P127T] | 0.0551 | 0.214
3 | MFFIKDLSLNITLHPSFFGPRMKQYLKTKLLEEVEGSCTGKFGYILCVLDYDNIDIQRGRILPTDGSAEFNVKYRAVVFKPFKGEVVDGTVVSCSQHGFEVQVGPMKVFVTKHLMPQDLTFNAGSNPASYQSSEDVITIKSRIRVKIEGCISQVSSIHAIGSIKEDYLGAI [P128A] | 0.0584 | 0.0984
4 | MFFIKDLSLNITLHPSFFGPRMKQYLKTKLLEEVEGSCTGKFGYILCVLDYDNIDIQRGRILPTDGSAEFNVKYRAVVFKPFKGEVVDGTVVSCSQHGFEVQVGPMKVFVTKHLMPQDLTFNAGSNPESYQSSEDVITIKSRIRVKIEGCISQVSSIHAIGSIKEDYLGAI [P128E] | -0.269 | -0.18
5 | MFFIKDLSLNITLHPSFFGPRMKQYLKTKLLEEVEGSCTGKFGYILCVLDYDNIDIQRGRILPTDGSAEFNVKYRAVVFKPFKGEVVDGTVVSCSQHGFEVQVGPMKVFVTKHLMPQDLTFNAGSNPHSYQSSEDVITIKSRIRVKIEGCISQVSSIHAIGSIKEDYLGAI [P128H] | -0.217 | -0.191
6 | MFFIKDLSLNITLHPSFFGPRMKQYLKTKLLEEVEGSCTGKFGYILCVLDYDNIDIQRGRILPTDGSAEFNVKYRAVVFKPFKGEVVDGTVVSCSQHGFEVQVGPMKVFVTKHLMPQDLTFNAGSNPKSYQSSEDVITIKSRIRVKIEGCISQVSSIHAIGSIKEDYLGAI [P128K] | -0.012 | -0.00674
7 | MFFIKDLSLNITLHPSFFGPRMKQYLKTKLLEEVEGSCTGKFGYILCVLDYDNIDIQRGRILPTDGSAEFNVKYRAVVFKPFKGEVVDGTVVSCSQHGFEVQVGPMKVFVTKHLMPQDLTFNAGSNPLSYQSSEDVITIKSRIRVKIEGCISQVSSIHAIGSIKEDYLGAI [P128L] | -0.017 | -0.047
8 | MFFIKDLSLNITLHPSFFGPRMKQYLKTKLLEEVEGSCTGKFGYILCVLDYDNIDIQRGRILPTDGSAEFNVKYRAVVFKPFKGEVVDGTVVSCSQHGFEVQVGPMKVFVTKHLMPQDLTFNAGSNPQSYQSSEDVITIKSRIRVKIEGCISQVSSIHAIGSIKEDYLGAI [P128Q] | 0.117 | 0.502
9 | MFFIKDLSLNITLHPSFFGPRMKQYLKTKLLEEVEGSCTGKFGYILCVLDYDNIDIQRGRILPTDGSAEFNVKYRAVVFKPFKGEVVDGTVVSCSQHGFEVQVGPMKVFVTKHLMPQDLTFNAGSNPRSYQSSEDVITIKSRIRVKIEGCISQVSSIHAIGSIKEDYLGAI [P128R] | -0.0187 | -0.0243
10 | MFFIKDLSLNITLHPSFFGPRMKQYLKTKLLEEVEGSCTGKFGYILCVLDYDNIDIQRGRILPTDGSAEFNVKYRAVVFKPFKGEVVDGTVVSCSQHGFEVQVGPMKVFVTKHLMPQDLTFNAGSNPSSYQSSEDVITIKSRIRVKIEGCISQVSSIHAIGSIKEDYLGAI [P128S] | -0.174 | -0.405
11 | MFFIKDLSLNITLHPSFFGPRMKQYLKTKLLEEVEGSCTGKFGYILCVLDYDNIDIQRGRILPTDGSAEFNVKYRAVVFKPFKGEVVDGTVVSCSQHGFEVQVGPMKVFVTKHLMPQDLTFNAGSNPTSYQSSEDVITIKSRIRVKIEGCISQVSSIHAIGSIKEDYLGAI [P128T] | -0.118 | -0.336
12 | MFFIKDLSLNITLHPSFFGPRMKQYLKTKLLEEVEGSCTGKFGYILCVLDYDNIDIQRGRILPTDGSAEFNVKYRAVVFKPFKGEVVDGTVVSCSQHGFEVQVGPMKVFVTKHLMPQDLTFNAGSNPVSYQSSEDVITIKSRIRVKIEGCISQVSSIHAIGSIKEDYLGAI [P128V] | -0.58 | -0.407
13 | MFFIKDLSLNITLHPSFFGPRMKQYLKTKLLEEVEGSCTGKFGYILCVLDYDNIDIQRGRILPTDGSAEFNVKYRAVVFKPFKGEVVDGTVVSCSQHGFEVQVGPMKVFVTKHLMPQDLTFNAGSNPPAYQSSEDVITIKSRIRVKIEGCISQVSSIHAIGSIKEDYLGAI [S129A] | -0.073 | -0.137
14 | MFFIKDLSLNITLHPSFFGPRMKQYLKTKLLEEVEGSCTGKFGYILCVLDYDNIDIQRGRILPTDGSAEFNVKYRAVVFKPFKGEVVDGTVVSCSQHGFEVQVGPMKVFVTKHLMPQDLTFNAGSNPPCYQSSEDVITIKSRIRVKIEGCISQVSSIHAIGSIKEDYLGAI [S129C] | -0.106 | -0.0884
15 | MFFIKDLSLNITLHPSFFGPRMKQYLKTKLLEEVEGSCTGKFGYILCVLDYDNIDIQRGRILPTDGSAEFNVKYRAVVFKPFKGEVVDGTVVSCSQHGFEVQVGPMKVFVTKHLMPQDLTFNAGSNPPEYQSSEDVITIKSRIRVKIEGCISQVSSIHAIGSIKEDYLGAI [S129E] | 0.292 | 0.215
16 | MFFIKDLSLNITLHPSFFGPRMKQYLKTKLLEEVEGSCTGKFGYILCVLDYDNIDIQRGRILPTDGSAEFNVKYRAVVFKPFKGEVVDGTVVSCSQHGFEVQVGPMKVFVTKHLMPQDLTFNAGSNPPFYQSSEDVITIKSRIRVKIEGCISQVSSIHAIGSIKEDYLGAI [S129F] | -0.438 | -0.321
17 | MFFIKDLSLNITLHPSFFGPRMKQYLKTKLLEEVEGSCTGKFGYILCVLDYDNIDIQRGRILPTDGSAEFNVKYRAVVFKPFKGEVVDGTVVSCSQHGFEVQVGPMKVFVTKHLMPQDLTFNAGSNPPGYQSSEDVITIKSRIRVKIEGCISQVSSIHAIGSIKEDYLGAI [S129G] | -0.244 | -0.136

Whole records, quoted from the list. Order of values: log2 fold change of mutant abundance [1] | NOISeq theta enrichment statistic [2]
MFFIKDLSLNITLHPSFFGPRMKQYLKTKLLEEVEGSCTGKFGYILCVLDYDNIDIQRGRILPTDGSAEFNVKYRAVVFKPFKGEVVDGTVVSCSQHGFEVQVGPMKVFVTKHLMPQDLTFNAGSNPTSYQSSEDVITIKSRIRVKIEGCISQVSSIHAIGSIKEDYLGAI [P128T] in the list: -0.118 | -0.336
MFFIKDLSLNITLHPSFFGPRMKQYLKTKLLEEVEGSCTGKFGYILCVLDYDNIDIQRGRILPTDGSAEFNVKYRAVVFKPFKGEVVDGTVVSCSQHGFEVQVGPMKVFVTKHLMPQDLTFNAGSNTPSYQSSEDVITIKSRIRVKIEGCISQVSSIHAIGSIKEDYLGAI [P127T] in the list: 0.0551 | 0.214
